T/C data for 1 compound are collected here from PubChem BioAssay AID222 (DTP/NCI, 2004).

The test system of this test is C57BL/6 mice, intracerebral ependymoblastoma, median survival T/C. As to the kind of experiment: NCI In Vivo Anticancer Drug Screen. Data for tumor model Ependymoblastoma (intracerebral) in C57BL/6 mice. To be noted: T/C endpoint: median survival time, schedule: Q01DX005 (ip), vehicle: saline, higher T/C = longer survival. On the procedure: The antitumor activity of compounds was measured in mice bearing transplantable tumors. Survival or tumor size were measured and the results are expressed as the measurement made in the treated group (T) divided by the measurement made in the vehicle treated control group (C). The tumor model used in this assay is Ependymoblastoma (intracerebral) in C57BL/6 mice

Structures are written as SMILES. The list is a part of this screen's results and no random one: its compounds were picked by chemical class. Other doses and runs of a compound may be missing. T/C gives the treated animals as a percentage of the vehicle group. Where survival is the endpoint, this PubChem deposit counts one and a half times the control or more as active, and values a quarter to a half above the control carry no call in these data; other NCI protocols may use other cut-offs. Some T/C values are marked as having no survivor count here; that says nothing about deaths at the dose. Schedule codes are those of the source, read here as Q, the interval in days (D) or hours (H), X, the number of doses.

Take `Cc1ccc(C(=O)O)cc1N(CCCl)CCCl`: the T/C by setting is: (dose: 3.12 mg/kg/injection) 101 % of control [survivor count not shown]; (dose: 6.25 mg/kg/injection) 94 % of control [survivor count not shown]; (dose: 12.5 mg/kg/injection) 102 % of control [survivor count not shown].
